## Screening data

Source: PubChem BioAssay AID1159506 (NCATS, 2015).

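Luminescence from an EWS-FLI1 target-promoter (NR0B1) reporter, set against a CMV-promoter reporter, two days after silencing single genes in TC32 Ewing sarcoma cells.
Each siRNA was applied at 20 nM.
A z-score of the log NR0B1-over-CMV signal, less the median of siRNAs with the same seed; more negative means a stronger specific loss of the NR0B1 reporter.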

This is part of the screen; most of the strongest results are not listed here.
Sequences are the guide (antisense) strand, without overhang.

strand,gene,seed-corrected z-score
UAAGGUAACACGAUACGGC,BSCL2,0.008439
UAAUGGUCCUGACUUCUGG,LOC100505841,-0.1073
UAAUGUCCUUGGGAGCUUC,ATG7,0.119
UAGUCAUCGAAAUUCUUGC,FABP3,-0.2492
AUGGGUUACAAAUUGCUGC,OR9G4,1.154
UGUGGACUCAGAUGCGCUC,MRTO4,0.04815
UCUUCAUUUAAACCGAUGG,PAGE3,0.1112
AUAGAUGUGAUAGCACCGG,DYRK2,0.8518
UUCACUUAGAGCAUUGACC,CMKLR1,-0.502
ACAUUGUUGACAUUUAUAG,ZNF75D,-0.09022
UAAAGUAUUGAUCAAAUCC,LOC402279,-0.3506
UUUGUACCAGCCGGUGACC,RIMS3,1.059
GCUGUAGCCAUUGAGCUCC,QRFP,0.4298
AACGGGACAACUGCUAAUG,P2RY10,-0.2392
UAGUCACAAACGUUGUAGC,TMC8,-1.42
UCUCUACUAAGUUGUCUCC,SCFD2,-0.4569
UUGGUGUUGACACUGGAGG,TMEM82,0.4897
AUCAGGAUAGUGGGUUUUC,ALX3,0.1236
AACGAUUCCAGUCUUGUCC,C6orf62,1.058
UUUCAUGCAAAGUAUACCC,ATXN1L,-0.9421
UCCUUGUACAGAACGAAUA,LILRB5,0.3046
UAGGGAAUUAUUUAACGGG,FXYD3,0.2465
UCGAUGGUAAACACGAUGC,CDH20,-0.2574
UUUAUCUUCAUAGUCUUUU,AKIRIN1,0.7835
UUCUGAGCCGAGAAUGUCC,CD68,0.5098
AAGUGAAUAAGCACUCUGC,RGS3,0.8875
UCCUCUAUAAACUUCUUCC,ZC3H12B,-0.5804
AAAGAUACCAGUUGUUGGG,CD33,-0.0473
ACAGGUAACUAGAAAAUCC,TRMT10B,0.07304
UCCUCCGUAACUUCUAAGG,PLEKHM3,0.05673
UUUUAGAUUUCGGCAAUGG,DEK,-0.05829
UUCGUGAAUCCAGAUCUUC,AIM1,-0.372
UUGCAAACAAUGACUCUCC,LGALS3,-0.8269
UAUCCUUACUGUCUGAUUC,FAM133B,-0.1988
UUCAGCUUGACAUCUAAGA,RNF7,-0.4377
CGAGAUAACGUGGCUCAGG,HBQ1,0.4518
UUGUUUGAAAUCUUCAGCU,MIR663AHG,0.6534
UAUAGUCUUCUUUCAGGUC,PAFAH2,0.7857
UCCUGGUCAAAGACUUUCA,JMJD7-PLA2G4B,-0.03695
UACUCGGAUGCAUUGCUGG,TCEB3,0.3558
UAUCUGAAGACACCGGCUC,CASQ2,-0.1053
UGUAUCAUUACUGCUAUGG,GRIN3A,-0.6628
UCAACCAUAAGAAUCCUGC,HPSE2,0.8026

For reference, 3 entries once more:

* UAAUGGUCCUGACUUCUGG against LOC100505841 : seed-corrected z-score -0.1073
* UGUGGACUCAGAUGCGCUC against MRTO4 : seed-corrected z-score 0.04815
* UCCUCCGUAACUUCUAAGG against PLEKHM3 : seed-corrected z-score 0.05673